Test results from patent publication US20060057559A1, “High-throughput cell migration screening assay” (Rigel Pharmaceuticals, Inc., priority 2004, published 2006).
For at least one compound, name, drawing or mass did not settle the structure.

Chains of the proteins cited; added tags and fusions are not shown.
UniProt P21453, whole entry: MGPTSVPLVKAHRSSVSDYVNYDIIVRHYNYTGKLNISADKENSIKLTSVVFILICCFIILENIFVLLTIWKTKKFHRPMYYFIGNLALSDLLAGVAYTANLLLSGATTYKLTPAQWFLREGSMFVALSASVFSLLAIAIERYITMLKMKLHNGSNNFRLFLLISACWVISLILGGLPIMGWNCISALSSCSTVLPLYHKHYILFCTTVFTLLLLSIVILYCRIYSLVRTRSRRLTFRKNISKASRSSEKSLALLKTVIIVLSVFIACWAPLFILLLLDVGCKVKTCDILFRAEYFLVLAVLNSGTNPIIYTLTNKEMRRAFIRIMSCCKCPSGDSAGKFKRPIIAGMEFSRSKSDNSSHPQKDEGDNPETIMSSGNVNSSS

Biological target: T1, EDG1 (Homo sapiens, UniProt P21453)
T1 construct: expressed in transfected cells; host or cells: T lymphoid cell line (Jurkat, EDG1 #15 clone), retroviral TIM EDG1 vector, tetracycline-regulated
Assay: Migration assay employing EDG1 as a migration molecule (T lymphoid cells overexpressing EDG1 migrating toward S1P, 96-well, CyQuant GR fluorescence)
Assay type: cell-based
Conditions: EDG1 expression regulated by tetracycline
Method: Both cell lines were used to optimize assay parameters in order to maximize accuracy and throughput in an automated 96-well format. Compounds were added together with S1P in bottom receiver plate; lipid starved cells were placed in the upper filter plate. The T cell migration may be finished in 2 to 4 hours. The cells which migrated to the receiver plate were stained with a fluorescence dye (CyQuant GR™) and detected by a fluorescence plate reader.
On day one, EDG1 expressing cells were grown at 0.4 millions/ml in RPMI 1640 containing 10% lipid-free serum (Charcoal-Dextran-Stripped Fetal Bovine Serum, Cat# 100-502 (Gemini Bioproducts™)) for 24 hours. EDG1 cells are maintained below 1 million/ml at all times. On the next day, cells were spun down, washed once with serum-free medium and re-suspended in RPMI 1640 containing 0.1% BSA (fat-free, cell culture tested) (Cat# A8806 (SIGMA ALDRICH FLUKA CHEMICALS™)) at a density of 6×10^6 per ml. 170 μl RPMI 1640 (0.1% BSA) containing 20 nM S1P (Cat# SL-140 (BioMol™)) and/or desired drugs were added to the receiver plate of […] Millipore Multiscreen MIC™ plates (Cat# MAMI C3S 10, 3 um pore size (Millipore™)) and the filter plates were carefully placed over the receiver plate. […] After 30 min agitating at RT, the plate was read in a fluorescence plate reader using 480/520 nm filter set.

SMILES: C[C@H]1c2cccc(O)c2C(=O)C2=C(O)[C@]3(O)C(=O)C(C(N)=O)=C(O)[C@@H](N(C)C)[C@@H]3[C@@H](O)[C@@H]21 [doxycycline]
- EDG1-mediated migration in the presence of doxycycline: abolished
